# Test results as given in patent US20180022828A1.
# No constants are given. Whether binding was seen depends on the method and setting. Some results given as binding are weak or reduced against the parent protein; the word gives no strength.
# Molecular target: ErbB2-Fc fusion protein (R&D Systems) (UniProt P04626)
# Assay: FACS of transduced NK cells stained with ErbB2-Fc fusion protein, then APC-conjugated anti-human Fc F(ab)2
row,binding,Binder
1,binds,ErbB2-specific CAR containing the modified CD8 alpha-chain hinge region and CD28 and CD3 zeta-chain signaling domains (protein) QVQLQQSGPELKKPGETVKISCKASGYPFTNYGMNWVKQAPGQGLKWMGWINTSTGESTFADDFKGRFDFSLETSANTAYLQINNLKSEDSATYFCARWEVYHGYVPYWGQGTTVTVSSGGGGSGGGGSGGGGSDIQLTQSHKFLSTSVGDRVSITCKASQDVYNAVAWYQQKPGQSPKLLIYSASSRYTGVPSRFTGSGSGPDFTFTISSVQAEDLAVYFCQQHFRTPFTFGSGTKLEIKALSNSIMYFSHFVPVFLPAKPTTTPAPRPPTPAPTIASQPLSLRPEASRPAAGGAVHTRGLDKPFWVLVVVGGVLACYSLLVTVAFIIFWVRSKRSRLLHSDYMNMTPRRPGPTRKHYQPYAPPRDFAAYRSRVKFSRSADAPAYQQGQNQLYNELNLGRREEYDVLDKRRGRDPEMGGKPRRKNPQEGLYNELQKDKMAEAYSEIGMKGERRRGKGHDGLYQGLSTATKDTYDALHMQALPPR
2,binds,ErbB2-specific CAR containing the modified CD8 alpha-chain hinge region and the transmembrane and intracellular domains of human CD3 zeta-chain (protein) QVQLQQSGPELKKPGETVKISCKASGYPFTNYGMNWVKQAPGQGLKWMGWINTSTGESTFADDFKGRFDFSLETSANTAYLQINNLKSEDSATYFCARWEVYHGYVPYWGQGTTVTVSSGGGGSGGGGSGGGGSDIQLTQSHKFLSTSVGDRVSITCKASQDVYNAVAWYQQKPGQSPKLLIYSASSRYTGVPSRFTGSGSGPDFTFTISSVQAEDLAVYFCQQHFRTPFTFGSGTKLEIKALSNSIMYFSHFVPVFLPAKPTTTPAPRPPTPAPTIASQPLSLRPEASRPAAGGAVHTRGLDPKLCYLLDGILFIYGVILTALFLRVKFSRSADAPAYQQGQNQLYNELNLGRREEYDVLDKRRGRDPEMGGKPRRKNPQEGLYNELQKDKMAEAYSEIGMKGERRRGKGHDGLYQGLSTATKDTYDALHMQALPPR
3,binds,ErbB2-specific CAR containing the unmodified CD8 alpha-chain hinge region and the transmembrane and intracellular domains of human CD3 zeta-chain (protein) QVQLQQSGPELKKPGETVKISCKASGYPFTNYGMNWVKQAPGQGLKWMGWINTSTGESTFADDFKGRFDFSLETSANTAYLQINNLKSEDSATYFCARWEVYHGYVPYWGQGTTVTVSSGGGGSGGGGSGGGGSDIQLTQSHKFLSTSVGDRVSITCKASQDVYNAVAWYQQKPGQSPKLLIYSASSRYTGVPSRFTGSGSGPDFTFTISSVQAEDLAVYFCQQHFRTPFTFGSGTKLEIKALSNSIMYFSHFVPVFLPAKPTTTPAPRPPTPAPTIASQPLSLRPEACRPAAGGAVHTRGLDPKLCYLLDGILFIYGVILTALFLRVKFSRSADAPAYQQGQNQLYNELNLGRREEYDVLDKRRGRDPEMGGKPRRKNPQEGLYNELQKDKMAEAYSEIGMKGERRRGKGHDGLYQGLSTATKDTYDALHMQALPPR
